Data on two substances can be found in publication PMC9200344, “The Caenorhabditis elegans TDRD5/7-like protein, LOTR-1, interacts with the helicase ZNFX-1 to balance epigenetic signals in the germline” (PLoS Genetics, 2022).

The chains behind the UniProt entries cited, without tags or fusion partners. Where a name states a change or a piece, a line headed by the entry shows the natural chain unless it says otherwise.
UniProt A5Z2T6: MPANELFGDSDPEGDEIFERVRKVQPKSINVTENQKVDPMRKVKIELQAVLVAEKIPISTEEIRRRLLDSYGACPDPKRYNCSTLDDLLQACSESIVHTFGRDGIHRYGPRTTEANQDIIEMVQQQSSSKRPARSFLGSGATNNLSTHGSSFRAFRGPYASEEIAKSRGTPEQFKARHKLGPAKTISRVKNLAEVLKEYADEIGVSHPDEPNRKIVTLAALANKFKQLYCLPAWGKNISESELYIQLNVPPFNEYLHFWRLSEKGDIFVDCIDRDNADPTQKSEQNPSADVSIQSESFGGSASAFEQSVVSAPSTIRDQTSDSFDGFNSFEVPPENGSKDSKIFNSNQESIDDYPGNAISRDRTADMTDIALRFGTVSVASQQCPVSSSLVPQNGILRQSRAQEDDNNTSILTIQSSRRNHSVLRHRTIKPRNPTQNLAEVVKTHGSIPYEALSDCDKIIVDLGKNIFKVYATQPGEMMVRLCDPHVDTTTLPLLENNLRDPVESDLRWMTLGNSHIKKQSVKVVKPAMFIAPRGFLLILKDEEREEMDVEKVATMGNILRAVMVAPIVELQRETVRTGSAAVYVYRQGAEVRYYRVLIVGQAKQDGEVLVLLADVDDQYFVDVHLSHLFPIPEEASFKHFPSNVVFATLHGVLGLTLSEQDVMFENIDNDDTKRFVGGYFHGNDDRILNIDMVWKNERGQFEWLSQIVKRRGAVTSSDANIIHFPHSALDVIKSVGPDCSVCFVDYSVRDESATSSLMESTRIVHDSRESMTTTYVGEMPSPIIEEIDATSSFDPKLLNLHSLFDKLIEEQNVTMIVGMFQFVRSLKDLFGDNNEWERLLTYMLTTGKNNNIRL
UniProt Q18509: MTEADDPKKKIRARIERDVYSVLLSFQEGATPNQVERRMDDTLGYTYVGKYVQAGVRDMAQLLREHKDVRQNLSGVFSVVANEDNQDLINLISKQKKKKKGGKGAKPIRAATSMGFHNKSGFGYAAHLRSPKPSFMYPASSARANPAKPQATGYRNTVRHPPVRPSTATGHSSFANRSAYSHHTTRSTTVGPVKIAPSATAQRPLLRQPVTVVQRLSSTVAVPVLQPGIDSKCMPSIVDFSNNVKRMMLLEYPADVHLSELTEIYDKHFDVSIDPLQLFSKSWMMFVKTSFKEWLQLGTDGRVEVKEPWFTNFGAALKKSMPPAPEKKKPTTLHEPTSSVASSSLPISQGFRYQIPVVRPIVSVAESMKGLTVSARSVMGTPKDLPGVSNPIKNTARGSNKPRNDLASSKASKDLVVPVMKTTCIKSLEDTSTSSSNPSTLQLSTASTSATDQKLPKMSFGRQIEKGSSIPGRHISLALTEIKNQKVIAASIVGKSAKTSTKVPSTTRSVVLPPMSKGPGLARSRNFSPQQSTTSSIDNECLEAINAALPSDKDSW
UniProt P90898: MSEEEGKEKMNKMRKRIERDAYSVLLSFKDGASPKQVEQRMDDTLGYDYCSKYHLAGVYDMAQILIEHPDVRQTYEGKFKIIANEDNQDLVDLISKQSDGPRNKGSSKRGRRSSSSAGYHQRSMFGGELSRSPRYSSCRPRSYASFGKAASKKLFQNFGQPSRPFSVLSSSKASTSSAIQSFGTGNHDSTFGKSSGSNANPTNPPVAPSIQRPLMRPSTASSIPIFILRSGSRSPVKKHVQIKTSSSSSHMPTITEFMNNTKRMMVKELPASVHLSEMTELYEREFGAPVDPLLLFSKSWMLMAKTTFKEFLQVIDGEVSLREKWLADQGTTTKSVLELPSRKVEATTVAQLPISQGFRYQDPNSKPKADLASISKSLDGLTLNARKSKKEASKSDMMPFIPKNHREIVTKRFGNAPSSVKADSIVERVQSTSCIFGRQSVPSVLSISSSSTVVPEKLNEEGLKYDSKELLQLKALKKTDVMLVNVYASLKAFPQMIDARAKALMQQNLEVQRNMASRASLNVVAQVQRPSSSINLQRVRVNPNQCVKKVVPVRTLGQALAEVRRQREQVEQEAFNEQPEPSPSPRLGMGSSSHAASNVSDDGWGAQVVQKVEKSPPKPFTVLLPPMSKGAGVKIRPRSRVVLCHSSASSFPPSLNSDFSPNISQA

No constants are given. Whether binding was seen depends on the method and setting. A result given as binding can be weak or reduced; the word gives no strength.

This test deals with full length LOTR-1 (yeast two-hybrid) (C. elegans) (UniProt A5Z2T6). The test can be described thus: two-hybrid; GAL4-AD and GAL4-BD fusions (pGAD-C1, pGBD-C1) in yeast strain PJ69-4a; SC-Leu-Trp-Ade plates or SC-Leu-Trp-His plates with varying 3-amino-1,2,4-triazole.

With “MIP-1 (yeast two-hybrid) (from UniProt Q18509)”, the binding result is listed as “binds”. Next, “MIP-2 (yeast two-hybrid) (from UniProt P90898)”: “binds”.
